# In the supplement of paper PMC8728848:
# This is one part of the list.
# Experiments:
# Assay in all cases: glycan array binding signal (z-score within array); higher = stronger binding
# Conditions in all cases: glycan notation: IUPAC condensed, linker removed
# [1] = target: Neu5Ac(a2-3)Gal(b1-3)[Neu5Ac(a2-6)]GlcNAc(b1-3)[Fuc(a1-3)[Gal(b1-4)]GlcNAc(b1-6)]Gal(b1-4)Glc
# Procedure, shortened: (§1)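 Columns mapping to the same glycan were averaged after glycan names were converted to IUPAC-condensed notation. The data come from 3228 arrays in the Consortium for Functional Glycomics database, limited to those with an available protein sequence. Binding is reported as a within-array Z-score averaged across arrays of one protein sequence and across linkers.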
# [2] = target: Neu5Ac(a2-3)Gal(b1-3)]Neu5Ac(a2-3)Gal(b1-4)]GlcNAc
# Procedure, shortened: as §1
# Neu5Ac(a2-3)Gal(b1-4)Glc = target: Neu5Ac(a2-3)Gal(b1-4)Glc
# Procedure, shortened: as §1
# [3] = target: Neu5Ac(a2-3)Gal(b1-4)GlcNAc
# Procedure, shortened: as §1
# [4] = target: Neu5Ac(a2-3)Gal(b1-4)GlcNAc(b1-2)Man
# Procedure, shortened: as §1
# [5] = target: Neu5Ac(a2-3)Gal(b1-4)GlcNAc(b1-2)Man(a1-3)[GlcNAc(b1-4)][Neu5Ac(a2-3)Gal(b1-4)GlcNAc(b1-2)Man(a1-6)]Man(b1-4)GlcNAc(b1-4)GlcNAc
# Procedure, shortened: as §1
# [6] = target: Neu5Ac(a2-3)Gal(b1-4)GlcNAc(b1-2)Man(a1-3)[Neu5Ac(a2-3)Gal(b1-4)GlcNAc(b1-2)Man(a1-6)]Man(b1-4)GlcNAc(b1-4)GlcNAc
# Procedure, shortened: as §1
# [7] = target: Neu5Ac(a2-3)Gal(b1-4)GlcNAc(b1-2)Man(a1-3)[Neu5Ac(a2-3)Gal(b1-4)GlcNAc(b1-2)Man(a1-6)]Man(b1-4)GlcNAc(b1-4)[Fuc(a1-6)]GlcNAc
# Procedure, shortened: as §1
# [8] = target: Neu5Ac(a2-3)Gal(b1-4)GlcNAc(b1-2)Man(a1-3)[Neu5Ac(a2-6)Gal(b1-4)GlcNAc(b1-2)Man(a1-6)]Man(b1-4)GlcNAc(b1-4)GlcNAc
# Procedure, shortened: as §1
# [9] = target: Neu5Ac(a2-3)Gal(b1-4)GlcNAc(b1-2)[Neu5Ac(a2-3)Gal(b1-4)GlcNAc(b1-4)]Man(a1-3)[GlcNAc(b1-4)][Neu5Ac(a2-3)Gal(b1-4)GlcNAc(b1-2)[Neu5Ac(a2-3)Gal(b1-4)GlcNAc(b1-6)]Man(a1-6)]Man(b1-4)GlcNAc(b1-4)GlcNAc
# Procedure, shortened: as §1
# [10] = target: Neu5Ac(a2-3)Gal(b1-4)GlcNAc(b1-2)[Neu5Ac(a2-3)Gal(b1-4)GlcNAc(b1-4)]Man(a1-3)[GlcNAc(b1-4)][Neu5Ac(a2-3)Gal(b1-4)GlcNAc(b1-4)Man(a1-6)]Man(b1-4)GlcNAc(b1-4)GlcNAc
# Procedure, shortened: as §1
# [11] = target: Neu5Ac(a2-3)Gal(b1-4)GlcNAc(b1-2)[Neu5Ac(a2-3)Gal(b1-4)GlcNAc(b1-6)]Man(a1-6)[Neu5Ac(a2-3)Gal(b1-4)GlcNAc(b1-2)Man(a1-3)][GlcNAc(b1-4)]Man(b1-4)GlcNAc(b1-4)GlcNAc
# Procedure, shortened: as §1
# [12] = target: Neu5Ac(a2-3)Gal(b1-4)GlcNAc(b1-3)Gal
# Procedure, shortened: as §1
# [13] = target: Neu5Ac(a2-3)Gal(b1-4)GlcNAc(b1-3)Gal(b1-3)GlcNAc
# Procedure, shortened: as §1
# [14] = target: Neu5Ac(a2-3)Gal(b1-4)GlcNAc(b1-3)Gal(b1-4)GlcNAc
# Procedure, shortened: as §1
# [15] = target: Neu5Ac(a2-3)Gal(b1-4)GlcNAc(b1-3)Gal(b1-4)GlcNAc(b1-2)Man(a1-3)[Neu5Ac(a2-3)Gal(b1-4)GlcNAc(b1-3)Gal(b1-4)GlcNAc(b1-2)Man(a1-6)]Man(b1-4)GlcNAc(b1-4)GlcNAc
# Procedure, shortened: as §1
# [16] = target: Neu5Ac(a2-3)Gal(b1-4)GlcNAc(b1-3)Gal(b1-4)GlcNAc(b1-3)Gal(b1-4)GlcNAc
# Procedure, shortened: as §1
# [17] = target: Neu5Ac(a2-3)Gal(b1-4)GlcNAc(b1-3)Gal(b1-4)GlcNAc(b1-3)Gal(b1-4)GlcNAc(b1-2)Man(a1-3)[Neu5Ac(a2-3)Gal(b1-4)GlcNAc(b1-3)Gal(b1-4)GlcNAc(b1-3)Gal(b1-4)GlcNAc(b1-2)Man(a1-6)]GalNAc
# Procedure, shortened: as §1
# [18] = target: Neu5Ac(a2-3)Gal(b1-4)GlcNAc(b1-3)Gal(b1-4)GlcNAc(b1-3)GalNAc
# Procedure, shortened: as §1
# [19] = target: Neu5Ac(a2-3)Gal(b1-4)GlcNAc(b1-3)Gal(b1-4)GlcNAc(b1-3)[Neu5Ac(a2-3)Gal(b1-4)GlcNAc(b1-3)Gal(b1-4)GlcNAc(b1-6)]GalNAc
# Procedure, shortened: as §1
# [20] = target: Neu5Ac(a2-3)Gal(b1-4)GlcNAc(b1-3)Gal(b1-4)GlcNAc(b1-6)[Gal(b1-3)]GalNAc
# Procedure, shortened: as §1
# [21] = target: Neu5Ac(a2-3)Gal(b1-4)GlcNAc(b1-3)Gal(b1-4)[Fuc(a1-3)]GlcNAc
# Procedure, shortened: as §1
# [22] = target: Neu5Ac(a2-3)Gal(b1-4)GlcNAc(b1-3)GalNAc
# Procedure, shortened: as §1
# [23] = target: Neu5Ac(a2-3)Gal(b1-4)GlcNAc(b1-3)[Neu5Ac(a2-3)Gal(b1-4)GlcNAc(b1-6)]GalNAc
# Procedure, shortened: as §1
# [24] = target: Neu5Ac(a2-3)Gal(b1-4)GlcNAc(b1-6)GalNAc
# Procedure, shortened: as §1
# [25] = target: Neu5Ac(a2-3)Gal(b1-4)GlcNAc(b1-6)[Gal(b1-3)]GalNAc
# Procedure, shortened: as §1
# [26] = target: Neu5Ac(a2-3)Gal(b1-4)GlcNAc(b1-6)[Neu5Ac(a2-3)Gal(b1-3)]GalNAc
# Procedure, shortened: as §1
# [27] = target: Neu5Ac(a2-3)Gal(b1-4)GlcNAc6S
# Procedure, shortened: as §1
# [28] = target: Neu5Ac(a2-3)Gal(b1-4)[Fuc(a1-3)]GlcNAc
# Procedure, shortened: as §1
# [29] = target: Neu5Ac(a2-3)Gal(b1-4)[Fuc(a1-3)]GlcNAc(b1-2)Man
# Procedure, shortened: as §1
# [30] = target: Neu5Ac(a2-3)Gal(b1-4)[Fuc(a1-3)]GlcNAc(b1-3)Gal
# Procedure, shortened: as §1
# [31] = target: Neu5Ac(a2-3)Gal(b1-4)[Fuc(a1-3)]GlcNAc(b1-3)Gal(b1-4)GlcNAc
# Procedure, shortened: as §1
# [32] = target: Neu5Ac(a2-3)Gal(b1-4)[Fuc(a1-3)]GlcNAc(b1-3)Gal(b1-4)[Fuc(a1-3)]GlcNAc(b1-3)Gal(b1-4)[Fuc(a1-3)]GlcNAc
# Procedure, shortened: as §1
# [33] = target: Neu5Ac(a2-3)Gal(b1-4)[Fuc(a1-3)]GlcNAc(b1-3)GalNAc
# Procedure, shortened: as §1
# [34] = target: Neu5Ac(a2-3)Gal(b1-4)[Fuc(a1-3)]GlcNAc(b1-6)[Gal(b1-3)]GalNAc
# Procedure, shortened: as §1
# [35] = target: Neu5Ac(a2-3)Gal(b1-4)[Fuc(a1-3)]GlcNAc(b1-6)[Neu5Ac(a2-3)Gal(b1-3)]GalNAc
# Procedure, shortened: as §1
# [36] = target: Neu5Ac(a2-3)Gal(b1-4)[Fuc(a1-3)]GlcNAc6S
# Procedure, shortened: as §1
# [37] = target: Neu5Ac(a2-3)Gal6S(b1-4)GlcNAc
# Procedure, shortened: as §1
binder,measurement,setting,value
"MtEccB1 (Mycobacterium tuberculosis H37Rv), O69734 (protein) MGLRLTTKVQVSGWRFLLRRLEHAIVRRDTRMFDDPLQFYSRSIALGIVVAVLILAGAALLAYFKPQGKLGGTSLFTDRATNQLYVLLSGQLHPVYNLTSARLVLGNPANPATVKSSELSKLPMGQTVGIPGAPYATPVSAGSTSIWTLCDTVARADSTSPVVQTAVIAMPLEIDASIDPLQSHEAVLVSYQGETWIVTTKGRHAIDLTDRALTSSMGIPVTARPTPISEGMFNALPDMGPWQLPPIPAAGAPNSLGLPDDLVIGSVFQIHTDKGPQYYVVLPDGIAQVNATTAAALRATQAHGLVAPPAMVPSLVVRIAERVYPSPLPDEPLKIVSRPQDPALCWSWQRSAGDQSPQSTVLSGRHLPISPSAMNMGIKQIHGTATVYLDGGKFVALQSPDPRYTESMYYIDPQGVRYGVPNAETAKSLGLSSPQNAPWEIVRLLVDGPVLSKDAALLEHDTLPADPSPRKVPAGASGAP",glycan array binding signal (z-score),[1],-0.202
same,glycan array binding signal (z-score),[2],0.038
same,glycan array binding signal (z-score),Neu5Ac(a2-3)Gal(b1-4)Glc,0.432
same,glycan array binding signal (z-score),[3],-0.992
same,glycan array binding signal (z-score),[4],0.566
same,glycan array binding signal (z-score),[5],4.06
same,glycan array binding signal (z-score),[6],-1.57
same,glycan array binding signal (z-score),[7],-0.813
same,glycan array binding signal (z-score),[8],-0.619
same,glycan array binding signal (z-score),[9],-0.204
same,glycan array binding signal (z-score),[10],-0.296
same,glycan array binding signal (z-score),[11],-0.334
same,glycan array binding signal (z-score),[12],0.951
same,glycan array binding signal (z-score),[13],-1.08
same,glycan array binding signal (z-score),[14],0.98
same,glycan array binding signal (z-score),[15],0.499
same,glycan array binding signal (z-score),[16],0.229
same,glycan array binding signal (z-score),[17],2.66
same,glycan array binding signal (z-score),[18],-0.354
same,glycan array binding signal (z-score),[19],-0.138
same,glycan array binding signal (z-score),[20],-2.62
same,glycan array binding signal (z-score),[21],0.18
same,glycan array binding signal (z-score),[22],-0.729
same,glycan array binding signal (z-score),[23],0.258
same,glycan array binding signal (z-score),[24],-0.495
same,glycan array binding signal (z-score),[25],0.01
same,glycan array binding signal (z-score),[26],-1.35
same,glycan array binding signal (z-score),[27],1.54
same,glycan array binding signal (z-score),[28],-0.625
same,glycan array binding signal (z-score),[29],0.248
same,glycan array binding signal (z-score),[30],-0.189
same,glycan array binding signal (z-score),[31],-0.815
same,glycan array binding signal (z-score),[32],-0.184
same,glycan array binding signal (z-score),[33],0.588
same,glycan array binding signal (z-score),[34],0.772
same,glycan array binding signal (z-score),[35],-0.295
same,glycan array binding signal (z-score),[36],-0.432
same,glycan array binding signal (z-score),[37],0.075

# Taken from the listing for reference:
binder,measurement,setting,value
"MtEccB1 (Mycobacterium tuberculosis H37Rv), O69734 (protein) MGLRLTTKVQVSGWRFLLRRLEHAIVRRDTRMFDDPLQFYSRSIALGIVVAVLILAGAALLAYFKPQGKLGGTSLFTDRATNQLYVLLSGQLHPVYNLTSARLVLGNPANPATVKSSELSKLPMGQTVGIPGAPYATPVSAGSTSIWTLCDTVARADSTSPVVQTAVIAMPLEIDASIDPLQSHEAVLVSYQGETWIVTTKGRHAIDLTDRALTSSMGIPVTARPTPISEGMFNALPDMGPWQLPPIPAAGAPNSLGLPDDLVIGSVFQIHTDKGPQYYVVLPDGIAQVNATTAAALRATQAHGLVAPPAMVPSLVVRIAERVYPSPLPDEPLKIVSRPQDPALCWSWQRSAGDQSPQSTVLSGRHLPISPSAMNMGIKQIHGTATVYLDGGKFVALQSPDPRYTESMYYIDPQGVRYGVPNAETAKSLGLSSPQNAPWEIVRLLVDGPVLSKDAALLEHDTLPADPSPRKVPAGASGAP",glycan array binding signal (z-score),[27],1.54
same,glycan array binding signal (z-score),[28],-0.625
